± gives the standard deviation of the averaged measurements. Differences between knockout arms are mostly noise.
Test system: ZR-75-1
Assay: relative cell number vs DMSO control (72 h) (% of DMSO); higher = less growth inhibition (more cells)
Method: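 QMAP-Seq: a pool of 5 breast cancer cell lines (ZR-75-1, SKBR3, HCC-38, MDA-MB-231, BT-20), each carrying 12 doxycycline-inducible Cas9 sgRNA perturbations (11 knockouts plus non-targeting sgNT), was treated with compounds for 72 h at four 10-fold doses (10 nM-10 uM or 1 nM-1 uM range). Barcodes were amplified and sequenced, and cell number was interpolated from 293T spike-in standard curves. The result is expressed as % of the median of DMSO wells. Two biological replicates.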

[1] = sgRNA knockout: sgATF3, 1000 nM
[2] = sgRNA knockout: sgATF3, 10000 nM
[3] = sgRNA knockout: sgATF4, 1000 nM
[4] = sgRNA knockout: sgATF4, 10000 nM
[5] = sgRNA knockout: sgATF6, 1000 nM
[6] = sgRNA knockout: sgATF6, 10000 nM
[7] = sgRNA knockout: sgATG7, 1000 nM
[8] = sgRNA knockout: sgATG7, 10000 nM
[9] = sgRNA knockout: sgERN1, 1000 nM
[10] = sgRNA knockout: sgERN1, 10000 nM
[11] = sgRNA knockout: sgHSF2, 1000 nM
[12] = sgRNA knockout: sgHSF2, 10000 nM
[13] = sgRNA knockout: sgNFE2L2, 10 nM
[14] = sgRNA knockout: sgNFE2L2, 100 nM
[15] = sgRNA knockout: sgNFE2L2, 1000 nM
[16] = sgRNA knockout: sgNFE2L2, 10000 nM
[17] = sgRNA knockout: sgSLC35F2, 10 nM
[18] = sgRNA knockout: sgSLC35F2, 100 nM
[19] = sgRNA knockout: sgSLC35F2, 1000 nM
[20] = sgRNA knockout: sgSLC35F2, 10000 nM
[21] = sgRNA knockout: sgXBP1, 1000 nM
[22] = sgRNA knockout: sgXBP1, 10000 nM

Which results are given for `CC(C)(C)c1ccc(S(=O)(=O)NCc2ccc(C(=O)Nc3cccnc3)cc2)cc1` [STF31]?
relative cell number (sgRNA knockout: sgATF3, 10 nM): 116 ± 4.9; relative cell number (sgRNA knockout: sgATF3, 100 nM): 86.7 ± 20; relative cell number [1]: 64.4 ± 13; relative cell number [2]: 66.9 ± 1.7; relative cell number (sgRNA knockout: sgATF4, 10 nM): 91.8 ± 10; relative cell number (sgRNA knockout: sgATF4, 100 nM): 82.5 ± 35; relative cell number [3]: 34 ± 4.4; relative cell number [4]: 60.2 ± 14; relative cell number (sgRNA knockout: sgATF6, 10 nM): 112 ± 57; relative cell number (sgRNA knockout: sgATF6, 100 nM): 88 ± 7.7; relative cell number [5]: 71.7 ± 64; relative cell number [6]: 67.5 ± 33; relative cell number (sgRNA knockout: sgATG7, 10 nM): 110 ± 22; relative cell number (sgRNA knockout: sgATG7, 100 nM): 105 ± 12; relative cell number [7]: 79.6 ± 17; relative cell number [8]: 38.7 ± 2.1; relative cell number (sgRNA knockout: sgERN1, 10 nM): 107 ± 8.8; relative cell number (sgRNA knockout: sgERN1, 100 nM): 87.3 ± 25; relative cell number [9]: 80.1 ± 12; relative cell number [10]: 70.7 ± 20; relative cell number (sgRNA knockout: sgHSF2, 10 nM): 102 ± 9.7; relative cell number (sgRNA knockout: sgHSF2, 100 nM): 80.1 ± 28; relative cell number [11]: 63.2 ± 12; relative cell number [12]: 42 ± 3.2; relative cell number [13]: 119.8 ± 0.34; relative cell number [14]: 92.1 ± 40; relative cell number [15]: 69.3 ± 4.9; relative cell number [16]: 36.8 ± 4.4; relative cell number [17]: 108 ± 18; relative cell number [18]: 97.3 ± 14; relative cell number [19]: 91.5 ± 5.8; relative cell number [20]: 50.4 ± 5; relative cell number (sgRNA knockout: sgXBP1, 10 nM): 98.2 ± 1.3; relative cell number (sgRNA knockout: sgXBP1, 100 nM): 80.5 ± 16; relative cell number [21]: 79.48 ± 0.3; relative cell number [22]: 43.2 ± 13

What does the source list for `CN1CCN(CCOc2cc(OC3CCOCC3)c3c(Nc4c(Cl)ccc5c4OCO5)ncnc3c2)CC1` [Saracatinib]?
relative cell number (sgRNA knockout: sgATF3, 10 nM): 88.7 ± 12; relative cell number (sgRNA knockout: sgATF3, 100 nM): 102 ± 14; relative cell number [1]: 64.1 ± 17; relative cell number [2]: 58.1 ± 7.8; relative cell number (sgRNA knockout: sgATF4, 10 nM): 78.2 ± 17; relative cell number (sgRNA knockout: sgATF4, 100 nM): 104 ± 19; relative cell number [3]: 72.8 ± 7.5; relative cell number [4]: 53.7 ± 2.7; relative cell number (sgRNA knockout: sgATF6, 10 nM): 96 ± 2.9; relative cell number (sgRNA knockout: sgATF6, 100 nM): 100 ± 88; relative cell number [5]: 72 ± 23; relative cell number [6]: 29.5 ± 18; relative cell number (sgRNA knockout: sgATG7, 10 nM): 92.2 ± 33; relative cell number (sgRNA knockout: sgATG7, 100 nM): 77.4 ± 32; relative cell number [7]: 67.4 ± 24; relative cell number [8]: 67.9 ± 18; relative cell number (sgRNA knockout: sgERN1, 10 nM): 77.1 ± 25; relative cell number (sgRNA knockout: sgERN1, 100 nM): 84.6 ± 16; relative cell number [9]: 114 ± 6.5; relative cell number [10]: 75.2 ± 4.3; relative cell number (sgRNA knockout: sgHSF2, 10 nM): 75.2 ± 8.2; relative cell number (sgRNA knockout: sgHSF2, 100 nM): 91.4 ± 3.3; relative cell number [11]: 82.08 ± 0.15; relative cell number [12]: 64.7 ± 10; relative cell number [13]: 114 ± 16; relative cell number [14]: 80.8 ± 2.1; relative cell number [15]: 83.3 ± 30; relative cell number [16]: 64.1 ± 5.1; relative cell number [17]: 107 ± 51; relative cell number [18]: 120 ± 21; relative cell number [19]: 59.4 ± 14; relative cell number [20]: 42.9 ± 28; relative cell number (sgRNA knockout: sgXBP1, 10 nM): 79.6 ± 2.9; relative cell number (sgRNA knockout: sgXBP1, 100 nM): 89.8 ± 8.1; relative cell number [21]: 91.5 ± 4.3; relative cell number [22]: 61.8 ± 2.4

`N[C@@H](CC(=O)N1CCn2c(nnc2C(F)(F)F)C1)Cc1cc(F)c(F)cc1F` [Sitagliptin] was tested. Which relative cell number (sgRNA knockout: sgATF3, 10 nM) did it give?
The relative cell number was 108 ± 9.

What about the relative cell number (sgRNA knockout: sgATF3, 100 nM) of the same compound?
The relative cell number was 140 ± 48.

And the relative cell number [1]?
The relative cell number was 115 ± 28.

What about the relative cell number [2] of the same compound?
The relative cell number was 101 ± 14.

And the relative cell number (sgRNA knockout: sgATF4, 10 nM)?
The relative cell number was 115 ± 68.

And the relative cell number (sgRNA knockout: sgATF4, 100 nM)?
Its relative cell number is 114 ± 2.6.

And the relative cell number [3]?
Its relative cell number is 102 ± 16.

What about the relative cell number [4] of the same compound?
Its relative cell number is 77.7 ± 6.9.

And the relative cell number (sgRNA knockout: sgATF6, 10 nM)?
Its relative cell number is 92.2 ± 11.

What about the relative cell number (sgRNA knockout: sgATF6, 100 nM) of the same compound?
The relative cell number was 143 ± 62.

And the relative cell number [5]?
Its relative cell number is 67.5 ± 1.8.

What about the relative cell number [6] of the same compound?
The relative cell number was 98.6 ± 14.

What about the relative cell number (sgRNA knockout: sgATG7, 10 nM) of the same compound?
Its relative cell number is 98.1 ± 23.

And the relative cell number (sgRNA knockout: sgATG7, 100 nM)?
The relative cell number was 93.7 ± 22.

And the relative cell number [7]?
The relative cell number was 116 ± 72.

And the relative cell number [8]?
Its relative cell number is 70.4 ± 14.

What about the relative cell number (sgRNA knockout: sgERN1, 10 nM) of the same compound?
The relative cell number was 87.5 ± 1.7.

And the relative cell number (sgRNA knockout: sgERN1, 100 nM)?
The relative cell number was 96.9 ± 9.

What about the relative cell number [9] of the same compound?
Its relative cell number is 97.6 ± 30.

What about the relative cell number [10] of the same compound?
Its relative cell number is 89 ± 18.

What about the relative cell number (sgRNA knockout: sgHSF2, 10 nM) of the same compound?
The relative cell number was 112 ± 22.

What about the relative cell number (sgRNA knockout: sgHSF2, 100 nM) of the same compound?
Its relative cell number is 98.6 ± 16.

And the relative cell number [11]?
Its relative cell number is 133 ± 14.

And the relative cell number [12]?
The relative cell number was 134.3 ± 0.98.

And the relative cell number [13]?
Its relative cell number is 105 ± 22.

What about the relative cell number [14] of the same compound?
Its relative cell number is 112 ± 26.

What about the relative cell number [15] of the same compound?
Its relative cell number is 101 ± 2.1.

And the relative cell number [16]?
The relative cell number was 94.3 ± 65.

And the relative cell number [17]?
Its relative cell number is 106 ± 28.

What about the relative cell number [18] of the same compound?
The relative cell number was 85.6 ± 61.

What about the relative cell number [19] of the same compound?
Its relative cell number is 90 ± 26.

And the relative cell number [20]?
The relative cell number was 125 ± 2.4.

And the relative cell number (sgRNA knockout: sgXBP1, 10 nM)?
The relative cell number was 99.2 ± 16.

What about the relative cell number (sgRNA knockout: sgXBP1, 100 nM) of the same compound?
The relative cell number was 113 ± 32.

What about the relative cell number [21] of the same compound?
The relative cell number was 108 ± 1.4.

And the relative cell number [22]?
The relative cell number was 96.4 ± 13.

`CNC(=O)c1cc(Oc2ccc(NC(=O)Nc3ccc(Cl)c(C(F)(F)F)c3)cc2)ccn1` [Sorafenib] was tested. Which relative cell number (sgRNA knockout: sgATF3, 10 nM) did it give?
The relative cell number was 106 ± 18.

What about the relative cell number (sgRNA knockout: sgATF3, 100 nM) of the same compound?
The relative cell number was 106 ± 18.

And the relative cell number [1]?
The relative cell number was 152 ± 2.6.

And the relative cell number [2]?
The relative cell number was 29.4 ± 6.1.

And the relative cell number (sgRNA knockout: sgATF4, 10 nM)?
The relative cell number was 110 ± 60.

What about the relative cell number (sgRNA knockout: sgATF4, 100 nM) of the same compound?
The relative cell number was 90.8 ± 62.

What about the relative cell number [3] of the same compound?
The relative cell number was 124 ± 23.

And the relative cell number [4]?
The relative cell number was 34.4 ± 8.6.

What about the relative cell number (sgRNA knockout: sgATF6, 10 nM) of the same compound?
Its relative cell number is 83.4 ± 33.

What about the relative cell number (sgRNA knockout: sgATF6, 100 nM) of the same compound?
The relative cell number was 70.5 ± 38.

And the relative cell number [5]?
Its relative cell number is 120 ± 16.

And the relative cell number [6]?
Its relative cell number is 48.4 ± 12.

And the relative cell number (sgRNA knockout: sgATG7, 10 nM)?
Its relative cell number is 90.1 ± 30.

And the relative cell number (sgRNA knockout: sgATG7, 100 nM)?
Its relative cell number is 105 ± 46.

And the relative cell number [7]?
Its relative cell number is 114 ± 8.7.

And the relative cell number [8]?
The relative cell number was 38.7 ± 7.7.

What about the relative cell number (sgRNA knockout: sgERN1, 10 nM) of the same compound?
Its relative cell number is 98.9 ± 5.8.

What about the relative cell number (sgRNA knockout: sgERN1, 100 nM) of the same compound?
The relative cell number was 88.1 ± 3.3.

And the relative cell number [9]?
The relative cell number was 125 ± 6.

And the relative cell number [10]?
Its relative cell number is 45.9 ± 12.

And the relative cell number (sgRNA knockout: sgHSF2, 10 nM)?
The relative cell number was 74.4 ± 17.

What about the relative cell number (sgRNA knockout: sgHSF2, 100 nM) of the same compound?
Its relative cell number is 121 ± 14.

What about the relative cell number [11] of the same compound?
The relative cell number was 150 ± 28.

What about the relative cell number [12] of the same compound?
Its relative cell number is 35.26 ± 0.34.

And the relative cell number [13]?
Its relative cell number is 174 ± 6.1.

What about the relative cell number [14] of the same compound?
The relative cell number was 87.3 ± 17.

And the relative cell number [15]?
The relative cell number was 114 ± 10.

What about the relative cell number [16] of the same compound?
Its relative cell number is 36.68 ± 0.17.

What about the relative cell number [17] of the same compound?
Its relative cell number is 84.7 ± 4.1.

What about the relative cell number [18] of the same compound?
Its relative cell number is 84.2 ± 4.

What about the relative cell number [19] of the same compound?
Its relative cell number is 177 ± 28.

And the relative cell number [20]?
Its relative cell number is 49.8 ± 5.3.

What about the relative cell number (sgRNA knockout: sgXBP1, 10 nM) of the same compound?
Its relative cell number is 138 ± 3.

And the relative cell number (sgRNA knockout: sgXBP1, 100 nM)?
The relative cell number was 110 ± 1.6.

And the relative cell number [21]?
The relative cell number was 115 ± 17.

What about the relative cell number [22] of the same compound?
The relative cell number was 41.6 ± 1.8.

Reference: the supplement of paper PMC7661543
